Measured values as given in article PMC5437018.

Chains of the proteins cited; added tags and fusions are not shown.
UniProt Q6PR54: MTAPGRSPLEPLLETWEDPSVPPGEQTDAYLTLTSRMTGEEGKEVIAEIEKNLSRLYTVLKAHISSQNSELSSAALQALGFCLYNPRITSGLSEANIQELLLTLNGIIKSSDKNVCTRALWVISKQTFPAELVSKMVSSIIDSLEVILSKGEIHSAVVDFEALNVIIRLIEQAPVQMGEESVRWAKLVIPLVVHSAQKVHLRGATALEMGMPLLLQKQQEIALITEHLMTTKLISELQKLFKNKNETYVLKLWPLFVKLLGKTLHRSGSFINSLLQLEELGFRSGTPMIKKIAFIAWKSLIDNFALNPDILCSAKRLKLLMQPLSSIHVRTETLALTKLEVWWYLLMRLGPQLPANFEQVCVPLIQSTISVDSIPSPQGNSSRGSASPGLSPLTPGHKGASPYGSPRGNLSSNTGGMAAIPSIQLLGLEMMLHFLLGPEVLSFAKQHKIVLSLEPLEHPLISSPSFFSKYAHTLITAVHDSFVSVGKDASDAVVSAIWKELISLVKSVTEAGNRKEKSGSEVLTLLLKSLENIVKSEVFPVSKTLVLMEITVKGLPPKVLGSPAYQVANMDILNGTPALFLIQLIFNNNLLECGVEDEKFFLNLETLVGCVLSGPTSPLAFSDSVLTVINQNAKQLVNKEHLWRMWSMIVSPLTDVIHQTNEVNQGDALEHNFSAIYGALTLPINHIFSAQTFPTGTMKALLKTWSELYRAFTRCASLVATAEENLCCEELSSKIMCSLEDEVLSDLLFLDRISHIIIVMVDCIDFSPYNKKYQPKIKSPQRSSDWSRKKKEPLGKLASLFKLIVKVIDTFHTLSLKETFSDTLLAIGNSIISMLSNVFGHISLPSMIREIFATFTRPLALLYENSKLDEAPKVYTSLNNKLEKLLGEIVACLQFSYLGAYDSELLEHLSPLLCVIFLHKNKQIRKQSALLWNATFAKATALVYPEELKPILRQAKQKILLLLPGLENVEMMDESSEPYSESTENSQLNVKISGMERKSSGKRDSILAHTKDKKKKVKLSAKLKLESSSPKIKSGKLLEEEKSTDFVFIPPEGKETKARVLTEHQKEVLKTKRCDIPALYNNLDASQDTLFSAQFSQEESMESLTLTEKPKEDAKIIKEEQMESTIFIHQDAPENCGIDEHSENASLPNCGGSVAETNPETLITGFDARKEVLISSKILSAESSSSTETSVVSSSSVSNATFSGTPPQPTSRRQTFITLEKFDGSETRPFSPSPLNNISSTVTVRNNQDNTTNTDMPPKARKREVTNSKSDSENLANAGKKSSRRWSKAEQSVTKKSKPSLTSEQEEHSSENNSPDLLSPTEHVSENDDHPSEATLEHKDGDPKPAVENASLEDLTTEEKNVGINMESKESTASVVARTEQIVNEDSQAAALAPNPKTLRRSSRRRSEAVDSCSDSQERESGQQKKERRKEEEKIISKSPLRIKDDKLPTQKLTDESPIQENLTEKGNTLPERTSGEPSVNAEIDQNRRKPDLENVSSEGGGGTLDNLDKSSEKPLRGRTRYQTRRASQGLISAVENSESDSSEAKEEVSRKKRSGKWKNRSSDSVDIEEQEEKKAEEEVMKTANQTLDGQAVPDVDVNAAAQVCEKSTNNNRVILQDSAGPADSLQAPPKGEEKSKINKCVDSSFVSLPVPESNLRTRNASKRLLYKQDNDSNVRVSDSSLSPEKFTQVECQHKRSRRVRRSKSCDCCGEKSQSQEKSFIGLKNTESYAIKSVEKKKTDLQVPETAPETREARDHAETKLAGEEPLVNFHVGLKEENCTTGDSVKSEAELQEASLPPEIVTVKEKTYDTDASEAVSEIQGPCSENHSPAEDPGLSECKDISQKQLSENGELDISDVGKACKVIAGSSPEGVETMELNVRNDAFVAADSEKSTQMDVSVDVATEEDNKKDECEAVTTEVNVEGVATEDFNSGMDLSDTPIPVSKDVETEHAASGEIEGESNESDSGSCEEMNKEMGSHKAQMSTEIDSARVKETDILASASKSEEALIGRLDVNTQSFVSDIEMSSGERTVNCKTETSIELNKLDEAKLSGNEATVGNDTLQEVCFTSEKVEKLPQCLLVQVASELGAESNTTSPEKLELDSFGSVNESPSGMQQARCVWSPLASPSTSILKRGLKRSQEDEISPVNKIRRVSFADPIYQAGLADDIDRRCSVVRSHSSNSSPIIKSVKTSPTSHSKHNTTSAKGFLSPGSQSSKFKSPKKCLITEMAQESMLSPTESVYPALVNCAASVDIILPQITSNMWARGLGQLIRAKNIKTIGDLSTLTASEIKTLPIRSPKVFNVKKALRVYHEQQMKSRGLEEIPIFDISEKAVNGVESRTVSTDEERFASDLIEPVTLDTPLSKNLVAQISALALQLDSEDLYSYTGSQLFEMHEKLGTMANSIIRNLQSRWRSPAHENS
UniProt P63087: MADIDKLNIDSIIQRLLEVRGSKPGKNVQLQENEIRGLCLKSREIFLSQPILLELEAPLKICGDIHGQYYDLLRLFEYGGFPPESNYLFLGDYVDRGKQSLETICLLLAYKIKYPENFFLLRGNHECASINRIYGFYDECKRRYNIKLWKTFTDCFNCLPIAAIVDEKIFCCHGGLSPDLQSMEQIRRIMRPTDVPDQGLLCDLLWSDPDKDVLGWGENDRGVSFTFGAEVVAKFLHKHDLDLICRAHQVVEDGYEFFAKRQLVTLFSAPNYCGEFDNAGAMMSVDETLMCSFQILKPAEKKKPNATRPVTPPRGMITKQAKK
UniProt P34022: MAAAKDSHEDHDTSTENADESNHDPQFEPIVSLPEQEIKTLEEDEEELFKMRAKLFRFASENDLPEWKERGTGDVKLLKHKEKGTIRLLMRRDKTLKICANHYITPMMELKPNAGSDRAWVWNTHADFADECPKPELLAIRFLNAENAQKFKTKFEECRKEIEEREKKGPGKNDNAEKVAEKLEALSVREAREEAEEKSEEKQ
UniProt O88685: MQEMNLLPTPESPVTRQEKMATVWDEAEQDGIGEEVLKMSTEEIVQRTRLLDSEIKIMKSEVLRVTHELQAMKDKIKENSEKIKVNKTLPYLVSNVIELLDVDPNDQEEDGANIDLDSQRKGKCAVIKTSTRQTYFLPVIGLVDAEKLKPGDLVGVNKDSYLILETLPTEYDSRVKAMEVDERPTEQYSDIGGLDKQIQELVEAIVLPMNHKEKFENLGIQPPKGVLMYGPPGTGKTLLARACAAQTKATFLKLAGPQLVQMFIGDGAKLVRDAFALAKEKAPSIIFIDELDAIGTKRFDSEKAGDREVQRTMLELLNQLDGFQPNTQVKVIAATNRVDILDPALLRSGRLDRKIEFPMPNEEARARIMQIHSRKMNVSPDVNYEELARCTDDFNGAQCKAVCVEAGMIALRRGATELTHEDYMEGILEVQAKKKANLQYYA
UniProt P60229: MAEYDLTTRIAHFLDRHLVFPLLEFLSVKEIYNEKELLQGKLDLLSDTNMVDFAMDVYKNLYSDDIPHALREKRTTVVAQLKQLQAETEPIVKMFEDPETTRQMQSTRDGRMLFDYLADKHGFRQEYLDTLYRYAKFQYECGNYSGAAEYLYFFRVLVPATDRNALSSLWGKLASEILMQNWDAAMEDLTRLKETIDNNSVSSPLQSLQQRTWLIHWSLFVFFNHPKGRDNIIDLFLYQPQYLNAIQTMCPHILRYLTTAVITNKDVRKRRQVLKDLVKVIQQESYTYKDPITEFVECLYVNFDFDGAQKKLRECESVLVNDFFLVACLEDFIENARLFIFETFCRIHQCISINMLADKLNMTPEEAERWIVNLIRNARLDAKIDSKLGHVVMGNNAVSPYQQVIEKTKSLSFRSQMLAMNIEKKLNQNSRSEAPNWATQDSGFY
UniProt P46935: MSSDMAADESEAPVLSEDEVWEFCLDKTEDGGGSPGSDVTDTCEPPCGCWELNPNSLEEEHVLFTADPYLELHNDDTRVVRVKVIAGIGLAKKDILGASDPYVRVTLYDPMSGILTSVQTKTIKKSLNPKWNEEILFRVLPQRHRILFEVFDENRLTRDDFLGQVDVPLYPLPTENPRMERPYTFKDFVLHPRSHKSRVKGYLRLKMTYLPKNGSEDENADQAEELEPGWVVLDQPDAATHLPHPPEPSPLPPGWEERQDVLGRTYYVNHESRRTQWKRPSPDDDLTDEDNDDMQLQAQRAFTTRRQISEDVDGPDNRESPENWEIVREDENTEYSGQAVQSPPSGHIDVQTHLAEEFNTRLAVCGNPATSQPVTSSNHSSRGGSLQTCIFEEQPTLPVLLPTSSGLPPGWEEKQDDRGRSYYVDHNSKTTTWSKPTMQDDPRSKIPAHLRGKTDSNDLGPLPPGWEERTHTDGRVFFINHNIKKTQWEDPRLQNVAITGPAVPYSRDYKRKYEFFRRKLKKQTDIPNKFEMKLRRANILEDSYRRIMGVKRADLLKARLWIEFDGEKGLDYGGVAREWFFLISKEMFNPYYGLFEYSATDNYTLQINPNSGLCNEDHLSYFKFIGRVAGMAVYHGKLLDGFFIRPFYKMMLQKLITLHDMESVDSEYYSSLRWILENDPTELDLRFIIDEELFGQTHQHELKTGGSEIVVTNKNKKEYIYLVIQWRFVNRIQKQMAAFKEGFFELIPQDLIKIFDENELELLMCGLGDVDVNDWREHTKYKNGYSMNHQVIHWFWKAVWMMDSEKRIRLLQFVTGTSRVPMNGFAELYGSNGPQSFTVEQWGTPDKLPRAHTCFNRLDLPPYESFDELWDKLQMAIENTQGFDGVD
UniProt P43346: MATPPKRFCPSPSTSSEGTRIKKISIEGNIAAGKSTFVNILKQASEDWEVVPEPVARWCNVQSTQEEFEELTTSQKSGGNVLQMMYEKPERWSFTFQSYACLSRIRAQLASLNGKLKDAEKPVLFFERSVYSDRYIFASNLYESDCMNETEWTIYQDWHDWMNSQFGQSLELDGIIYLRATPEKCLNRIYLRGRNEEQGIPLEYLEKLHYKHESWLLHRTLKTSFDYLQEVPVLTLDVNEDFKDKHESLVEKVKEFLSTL
UniProt P23116: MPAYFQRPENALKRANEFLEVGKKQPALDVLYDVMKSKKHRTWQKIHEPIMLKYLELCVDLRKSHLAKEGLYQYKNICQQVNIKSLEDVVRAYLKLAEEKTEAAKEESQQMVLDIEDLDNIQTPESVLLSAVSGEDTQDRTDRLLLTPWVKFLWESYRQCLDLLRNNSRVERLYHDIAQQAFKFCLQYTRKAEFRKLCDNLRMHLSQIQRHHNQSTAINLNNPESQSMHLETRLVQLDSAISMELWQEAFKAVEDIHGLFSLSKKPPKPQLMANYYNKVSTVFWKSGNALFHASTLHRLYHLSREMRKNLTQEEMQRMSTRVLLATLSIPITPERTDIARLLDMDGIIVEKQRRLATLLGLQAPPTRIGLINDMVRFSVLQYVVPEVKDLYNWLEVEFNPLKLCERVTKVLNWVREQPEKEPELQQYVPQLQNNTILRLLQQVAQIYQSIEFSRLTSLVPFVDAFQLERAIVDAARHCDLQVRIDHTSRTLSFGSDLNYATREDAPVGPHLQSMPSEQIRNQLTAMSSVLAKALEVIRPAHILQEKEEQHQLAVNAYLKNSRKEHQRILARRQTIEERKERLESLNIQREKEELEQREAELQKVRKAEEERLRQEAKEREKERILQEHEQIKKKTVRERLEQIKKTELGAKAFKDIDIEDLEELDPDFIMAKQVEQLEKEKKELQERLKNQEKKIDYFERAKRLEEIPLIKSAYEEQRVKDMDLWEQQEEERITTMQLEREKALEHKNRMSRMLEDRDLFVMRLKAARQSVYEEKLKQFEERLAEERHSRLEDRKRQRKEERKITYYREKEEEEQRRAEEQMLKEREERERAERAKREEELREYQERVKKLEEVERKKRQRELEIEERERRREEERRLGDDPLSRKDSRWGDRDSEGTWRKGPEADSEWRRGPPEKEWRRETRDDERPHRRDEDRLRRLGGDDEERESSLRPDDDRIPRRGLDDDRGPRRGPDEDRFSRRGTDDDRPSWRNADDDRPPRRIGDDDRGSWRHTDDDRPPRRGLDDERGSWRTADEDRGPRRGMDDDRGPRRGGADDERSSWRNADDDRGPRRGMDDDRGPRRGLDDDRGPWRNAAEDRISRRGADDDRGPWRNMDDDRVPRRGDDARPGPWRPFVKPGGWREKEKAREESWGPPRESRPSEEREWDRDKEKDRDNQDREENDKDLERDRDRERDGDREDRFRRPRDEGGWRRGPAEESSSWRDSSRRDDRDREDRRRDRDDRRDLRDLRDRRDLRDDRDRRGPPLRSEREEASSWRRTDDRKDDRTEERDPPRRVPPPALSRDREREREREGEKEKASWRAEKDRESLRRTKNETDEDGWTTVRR

Target: Rif1^FLAG-HA2 (endogenous mouse Rif1 carrying a knock-in FLAG-HA2 tag) (mouse) (UniProt Q6PR54)
Experiment: affinity purification with mass spectrometry; anti-Flag M2 affinity gel IP of Rif1^FH from nuclear extracts of Rif1^FH/+ mouse ESCs (Benzonase, 0.2% Triton X-100), overnight 4 °C, washes with 150 mM NaCl and 0.1% Triton X-100, Flag-peptide elution; label-free quantitation against Rif1^+/+ ESCs

Substance | binding
PP1γ (endogenous) (from UniProt P63087 1-323) (enzyme) | no binding
Ran-specific GTPase-activating protein (from UniProt P34022 1-203) | binds
Exportin 1 (from UniProt Q6P5F9 1-1071) | binds
26S proteasome regulatory subunit 6A (from UniProt O88685 1-442) | binds
Eukaryotic translation initiation factor subunit E (from UniProt P60229 1-445) | binds
E3 ubiquitin-protein ligase NEDD4 (from UniProt P46935 1-887) (enzyme) | binds
Protein phosphatase 1 subunit A (endogenous) (from UniProt P62137 1-330) (enzyme) | binds
Deoxycytidine Kinase (from UniProt P43346 1-260) (enzyme) | binds
Eukaryotic translation initiation factor subunit A (from UniProt P23116 1-1344) | binds

No constants are given. Whether binding was seen depends on the method and setting. In cells and extracts the contact can be indirect. A yes stands for co-enrichment or nearness to the bait. Other partners may have been found. A no says only that the protein was not detected with the bait.
